Our source for the binding values is patent publication US20230331848A1.

Chains of the proteins cited; added tags and fusions are not shown. Residues count along the entry.
UniProt Q15116, residues 25-167: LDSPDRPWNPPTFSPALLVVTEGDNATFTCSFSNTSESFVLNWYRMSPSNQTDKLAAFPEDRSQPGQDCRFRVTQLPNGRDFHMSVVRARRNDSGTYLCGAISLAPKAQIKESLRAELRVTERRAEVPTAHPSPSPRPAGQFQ

Where a chain is given by its changes, count along the chain named. No constants are given. Whether binding was seen depends on the method and setting. Some entries that bind do so weakly or less than the wild type.

In assay [1] the target is human PD-1-his protein (Cat#:PD1-H5221, Acro biosystems Inc.) (human) (UniProt Q15116). Briefly: BLI (Octet RED96). A general note: Biolayer interferometry detects binding as a change in optical thickness at a sensor tip.
Assay [2] deals with cynomolgus PD-1-his protein (Cat#:PD1-05223, Acro biosystems Inc.) (cynomolgus) (UniProt B0LAJ3). Briefly: SPR (Biacore). For orientation: In SPR one partner is held on a chip, and binding of the other changes the refractive index at the surface.

B1: humanized antibody huE1A9C8A7-V1 (antibody, human IgG4 S228P, kappa, V domains shown)
VH: QVQLVQSGAEVVKPGASVKISCKASGYTFSDYVMHWMRQAPGQSLEWIGVISTYHIPAVYNQKFKGKATMTVDKSTSTVYLELSSLRSEDTAVYYCAREVYGDSYYFDVWGQGTTVTVSS
VL: DIVMTQTPLSLPVTPGEPASISCRSSQSIVHSNGNTYLEWYLQKPGQSPQLLIYKVSNRFSGVPDRFSGSGSGTDFTLKISRVEAEDVGVYYCFQGSHVPYTFGGGTKVEIKR
For B1, the binding entry in assay [1] is “binds”.

B2: humanized antibody huE1A9C8A7-V8-3 (antibody, human IgG4 S228P, kappa, V domains shown)
VH: B1 VH with S30T, M37V, I48M, K74T, D103E
VL: B1 VL with N33A
Consider B2, for which the binding entry in assay [2] was “binds”.
